Measurements as given in publication PMC7367195.
No constants are given. Whether binding was seen depends on the method and setting. In cells and extracts the contact can be indirect. Some entries that bind do so weakly or less than the wild type. One block for each molecule: values may come before it.

Protein sequences, listed by entry. Tags and fused reporters are not part of them.
UniProt Q9EQQ0: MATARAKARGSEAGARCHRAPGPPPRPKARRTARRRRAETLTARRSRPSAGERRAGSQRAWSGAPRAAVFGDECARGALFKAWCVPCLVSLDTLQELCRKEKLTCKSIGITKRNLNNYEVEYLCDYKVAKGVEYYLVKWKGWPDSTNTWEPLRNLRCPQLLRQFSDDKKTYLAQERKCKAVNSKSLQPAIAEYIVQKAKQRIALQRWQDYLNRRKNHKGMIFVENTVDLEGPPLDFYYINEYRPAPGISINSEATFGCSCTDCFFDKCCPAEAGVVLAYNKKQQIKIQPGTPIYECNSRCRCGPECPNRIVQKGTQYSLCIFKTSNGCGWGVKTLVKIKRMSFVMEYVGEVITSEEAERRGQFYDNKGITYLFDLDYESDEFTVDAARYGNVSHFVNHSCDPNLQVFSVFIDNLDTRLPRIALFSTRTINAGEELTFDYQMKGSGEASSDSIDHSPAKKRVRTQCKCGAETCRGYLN
UniProt Q8R418: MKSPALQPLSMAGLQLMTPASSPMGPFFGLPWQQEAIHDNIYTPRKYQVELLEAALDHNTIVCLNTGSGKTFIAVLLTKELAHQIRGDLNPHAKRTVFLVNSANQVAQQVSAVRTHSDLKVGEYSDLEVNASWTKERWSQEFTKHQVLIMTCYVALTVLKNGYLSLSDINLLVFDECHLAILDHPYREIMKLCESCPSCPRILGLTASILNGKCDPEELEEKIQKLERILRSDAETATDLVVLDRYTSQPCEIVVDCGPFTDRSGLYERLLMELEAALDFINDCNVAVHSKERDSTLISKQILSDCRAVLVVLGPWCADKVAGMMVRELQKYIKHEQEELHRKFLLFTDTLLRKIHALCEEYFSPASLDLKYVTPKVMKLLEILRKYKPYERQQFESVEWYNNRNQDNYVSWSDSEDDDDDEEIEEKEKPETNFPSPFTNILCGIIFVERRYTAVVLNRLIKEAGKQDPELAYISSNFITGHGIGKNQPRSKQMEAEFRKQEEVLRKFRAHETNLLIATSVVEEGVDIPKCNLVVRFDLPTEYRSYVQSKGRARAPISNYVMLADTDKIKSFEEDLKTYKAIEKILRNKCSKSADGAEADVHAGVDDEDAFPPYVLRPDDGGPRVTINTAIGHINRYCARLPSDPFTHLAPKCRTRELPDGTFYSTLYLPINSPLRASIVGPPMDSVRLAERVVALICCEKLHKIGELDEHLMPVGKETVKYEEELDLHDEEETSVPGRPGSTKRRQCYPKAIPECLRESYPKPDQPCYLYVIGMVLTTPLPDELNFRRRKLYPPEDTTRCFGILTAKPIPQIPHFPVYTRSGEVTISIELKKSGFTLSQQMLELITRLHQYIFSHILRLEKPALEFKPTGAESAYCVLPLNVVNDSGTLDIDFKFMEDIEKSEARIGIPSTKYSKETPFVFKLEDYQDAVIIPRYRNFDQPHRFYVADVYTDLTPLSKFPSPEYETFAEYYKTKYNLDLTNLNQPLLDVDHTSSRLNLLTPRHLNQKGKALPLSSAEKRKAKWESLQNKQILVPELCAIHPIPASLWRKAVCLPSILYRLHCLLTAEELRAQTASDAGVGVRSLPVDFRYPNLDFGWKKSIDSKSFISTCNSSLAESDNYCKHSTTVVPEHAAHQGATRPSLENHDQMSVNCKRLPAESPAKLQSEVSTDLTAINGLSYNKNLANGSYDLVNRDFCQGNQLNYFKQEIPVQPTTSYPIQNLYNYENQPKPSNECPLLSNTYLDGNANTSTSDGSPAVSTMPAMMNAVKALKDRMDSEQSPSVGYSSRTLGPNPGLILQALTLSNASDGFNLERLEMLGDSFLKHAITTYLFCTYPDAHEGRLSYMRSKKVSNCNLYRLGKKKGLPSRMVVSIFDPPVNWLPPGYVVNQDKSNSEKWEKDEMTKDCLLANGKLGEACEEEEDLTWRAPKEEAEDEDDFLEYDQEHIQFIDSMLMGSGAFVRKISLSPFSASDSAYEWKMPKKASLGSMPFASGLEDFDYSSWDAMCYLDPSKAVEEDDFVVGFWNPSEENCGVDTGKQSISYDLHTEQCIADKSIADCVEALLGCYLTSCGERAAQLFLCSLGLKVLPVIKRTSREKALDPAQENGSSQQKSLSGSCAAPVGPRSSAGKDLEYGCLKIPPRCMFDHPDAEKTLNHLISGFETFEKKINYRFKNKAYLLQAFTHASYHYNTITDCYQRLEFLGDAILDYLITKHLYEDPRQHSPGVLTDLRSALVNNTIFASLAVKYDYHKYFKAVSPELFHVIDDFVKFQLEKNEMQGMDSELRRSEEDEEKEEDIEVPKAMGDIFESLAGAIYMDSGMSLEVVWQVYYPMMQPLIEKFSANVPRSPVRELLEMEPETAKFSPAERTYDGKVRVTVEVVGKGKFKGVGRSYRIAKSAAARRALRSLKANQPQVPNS

How the values were obtained:
[1] = target: SUV39H2 (Suppressor of variegation 3–9 homolog 2) (mouse (endogenous in testis)) (UniProt Q9EQQ0); experiment: co-IP; 18 dpp mouse testis lysate (50 mM Tris–HCl pH 7.5, 150 mM NaCl, 1.5 mM MgCl2, 1% Triton X-100, 0.1% NP-40); 2–3 μg antibody overnight at +4°C, Dynabeads Protein G; western blotting; rabbit IgG as control
[2] = target: DICER (mouse (endogenous in testis)) (UniProt Q8R418); experiment: as above

- binding [1]: binds
Molecule: DICER (from UniProt Q8R418 1-1916) (enzyme)

- binding [2]: binds
B1: TRIM33 (Tripartite motif-containing 33) (protein, UniProt Q99PP7 1-1142)
chain: MAENKGGGEAESGGGGSGSAPVTAGAAGPTAQEAEPPLAAVLVEEEEEEGGRAGAEGGAAGPDDGGVAAASSSSAPAASVPAASVGSAVPGGAASTPAPAAAPAPAPAPAPAPAPAPAPAPAPGSSSGPPLGPPASLLDTCAVCQQSLQSRREAEPKLLPCLHSFCLRCLPEPERQLSVPIPGGSNGDVQQVGVIRCPVCRQECRQIDLVDNYFVKDTSEAPSSSDEKSEQVCTSCEDNASAVGFCVECGEWLCKTCIEAHQRVKFTKDHLIRKKEDVSESVGTSGQRPVFCPVHKQEQLKLFCETCDRLTCRDCQLLEHKEHRYQFLEEAFQNQKGAIENLLAKLLEKKNYVHFAATQVQNRIKEVNETNKRVEQEIKVAIFTLINEINKKGKSLLQQLENVTKERQMKLLQQQNDITGLSRQVKHVMNFTNWAIASGSSTALLYSKRLITFQLRHILKARCDPVPAANGAIRFHCDPTFWAKNVVNLGNLVIESKPAPGYTPNVVVGQVPPGTNHISKTPGQINLAQLRLQHMQQQVYAQKHQQLQQMRLQQPPAPIPTTTATTQQHPRQAAPQMLQQQPPRLISVQTMQRGNMNCGAFQAHQMRLAQNAARIPGIPRHSAPQYSMMQPHLQRQHSNPGHAGPFPVVSAHNPINPTSPTTATMANANRGPTSPSVTAIELIPSVTNPENLPSLPDIPPIQLEDAGSSSLDNLLSRYISGSHLPPQPTSTMNPSPGPSALSPGSSGLSNSHTPVRPPSTSSTGSRGSCGSSGRTAEKSAHSFKSDQVKVKQEPGTEEEICSFSGAVKQEKTEDGRRSACMLSSPESSLTPPLSTNLHLESELDTLTGLENHVKTEPTDISESCKQSGLSNLVNGKSPIRNLMHRSARIGGDGNSKDDDPNEDWCAVCQNGGDLLCCEKCPKVFHLTCHVPTLLSFPSGDWICTFCRDIGKPEVEYDCDNMQHSKKGKTAQGLSPVDQRKCERLLLYLYCHELSIEFQEPVPVSIPNYYKIIKKPMDLSTVKKKLQKKHSQHYQIPDDFVADVRLIFKNCERFNEMMKVVQVYADTQEINLKGDSEVAKAGKAVALYFEDKLSEIYSDRTFTPLPEFEQDEDDGEVTEDSDEDFIQPRRKRLKSDERPVHIK
